PubChem BioAssay AID1224830, NIAID – 2016

Purpose: 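Regulators of TLR4 signalling towards TNF-alpha in macrophage-like cells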 (primary screen)
Cell system: human THP-1 monocytic leukaemia cells, TNF dual-luciferase reporter clone, PMA-differentiated to macrophage-like cells
Reagents: siRNA pool against human genes, 50 nM
Time to read-out: LPS for 4 h, given about 3 days after siRNA transfection
Treatment: bacterial LPS (TLR4 ligand), 10 ng/ml
Read-out: 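Ratio of firefly to renilla light, scaled to the plate median and expressed as a robust z-score per replicate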
Reading the numbers: TNF reporter robust z-score: higher = stronger TNF reporter response to LPS
Active means: 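Each well counts as active if its z-score is over 2.8 or under -1.5; controls are left without a call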
This is one part, drawn at random, of about 18,000 reagents tested. About 2,900 of all reagents (16%) were called active. 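Calls are made per well; low scores hint the gene aids the LPS response, high scores that it dampens it.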 Unmarked entries are inactive. Repeated entries: four replicate wells of each siRNA pool. Reagent sequences are not shown.

The opening 15 entries, to show the layout:
TNF reporter robust z-score	target	PubChem SID
-1.2	CXCR3	SID315448992
-0.06	CXCR3	SID315448992
-1.77 (active)	CXCR3	SID315448992
-0.42	CXCR3	SID315448992
-0.8	POTEE	SID315464984
-0.38	POTEE	SID315464984
-0.27	POTEE	SID315464984
-0.13	POTEE	SID315464984
-1.43	MT2A	SID315450060
-0.82	MT2A	SID315450060
-0.75	MT2A	SID315450060
-1.16	MT2A	SID315450060
-0.79	PNISR	SID315455578
-1.14	PNISR	SID315455578
-0.86	PNISR	SID315455578

Results, from the start:
TNF reporter robust z-score	target	PubChem SID
-1.2	CXCR3	SID315448992
-0.06	CXCR3	SID315448992
-1.77 (active)	CXCR3	SID315448992
-0.42	CXCR3	SID315448992
-0.8	POTEE	SID315464984
-0.38	POTEE	SID315464984
-0.27	POTEE	SID315464984
-0.13	POTEE	SID315464984
-1.43	MT2A	SID315450060
-0.82	MT2A	SID315450060
-0.75	MT2A	SID315450060
-1.16	MT2A	SID315450060
-0.79	PNISR	SID315455578
-1.14	PNISR	SID315455578
-0.86	PNISR	SID315455578
-0.05	PNISR	SID315455578
-0.77	CAGE1	SID315463878
-0.87	CAGE1	SID315463878
-0.57	CAGE1	SID315463878
0.28	CAGE1	SID315463878
0.43	LIPC	SID315449774
-0.18	LIPC	SID315449774
-0.08	LIPC	SID315449774
1.08	LIPC	SID315449774
-1.35	HCN1	SID315464254
-1.14	HCN1	SID315464254
0.08	HCN1	SID315464254
0.57	HCN1	SID315464254
0.06	MAS1	SID315449886
0.25	MAS1	SID315449886
0.74	MAS1	SID315449886
1.04	MAS1	SID315449886
1.19	LRRC2	SID315459284
0.45	LRRC2	SID315459284
0.97	LRRC2	SID315459284
2.25	LRRC2	SID315459284
-0.8	TMEM167A	SID315462559
-0.66	TMEM167A	SID315462559
-0.06	TMEM167A	SID315462559
-0.38	TMEM167A	SID315462559
0.94	SLC27A1	SID315464388
0.32	SLC27A1	SID315464388
0.07	SLC27A1	SID315464388
1.62	SLC27A1	SID315464388
-0.88	CASD1	SID315459043
-0.54	CASD1	SID315459043
-0.49	CASD1	SID315459043
-0.26	CASD1	SID315459043
0.63	LAMB1	SID315449726
1.7	LAMB1	SID315449726
0.77	LAMB1	SID315449726
0.79	LAMB1	SID315449726
-0.01	CST4	SID315448149
0.62	CST4	SID315448149
-0.51	CST4	SID315448149
-0.37	CST4	SID315448149
-1.41	GABRD	SID315448805
0.99	GABRD	SID315448805
0.4	GABRD	SID315448805
-0.08	GABRD	SID315448805
0.11	ARL9	SID315461933
0.5	ARL9	SID315461933
0.41	ARL9	SID315461933
-0.29	ARL9	SID315461933
1.88	RANBP3L	SID315463098
0.96	RANBP3L	SID315463098
2.03	RANBP3L	SID315463098
1.79	RANBP3L	SID315463098
-1.51 (active)	MBNL1	SID315449897
-1.58 (active)	MBNL1	SID315449897
-1.26	MBNL1	SID315449897
-1.04	MBNL1	SID315449897
-0.32	SDHAF2	SID315457291
0.44	SDHAF2	SID315457291
-0.47	SDHAF2	SID315457291
-0.8	SDHAF2	SID315457291
-1.16	LIME1	SID315457268
-0.96	LIME1	SID315457268
-1.51 (active)	LIME1	SID315457268
1.96	CENPV	SID315463060
1.95	CENPV	SID315463060
1.38	CENPV	SID315463060
2.15	CENPV	SID315463060
1.55	VPS13B	SID315462628
1.14	VPS13B	SID315462628
1.67	VPS13B	SID315462628
2.55	VPS13B	SID315462628
-0.48	SLC10A7	SID315460172
-0.46	SLC10A7	SID315460172
-0.44	SLC10A7	SID315460172
-0.01	SLC10A7	SID315460172
-0.8	IWS1	SID315457765
-0.91	IWS1	SID315457765
-1.08	IWS1	SID315457765
-0.48	IWS1	SID315457765
-1.29	NICN1	SID315460289
-1	NICN1	SID315460289
-1.02	NICN1	SID315460289
-0.89	NICN1	SID315460289
2.07	TMEM225	SID315463991
-0.51	TMEM225	SID315463991
-1.54 (active)	TMEM225	SID315463991
-0.76	TMEM225	SID315463991
-0.08	ZP3	SID315452303
-0.81	ZP3	SID315452303
-1.68 (active)	ZP3	SID315452303
-1.6 (active)	ZP3	SID315452303
-1.59 (active)	RCSD1	SID315460990
-1.19	RCSD1	SID315460990
-1.58 (active)	RCSD1	SID315460990
-1.15	RCSD1	SID315460990
-0.35	POLR3E	SID315457797
0.49	POLR3E	SID315457797
1.15	POLR3E	SID315457797
1.28	POLR3E	SID315457797
-0.11	PRR5	SID315457716
1.64	PRR5	SID315457716
1.33	PRR5	SID315457716
1.5	PRR5	SID315457716
-1.65 (active)	SNRPC	SID315451558
-1.46	SNRPC	SID315451558
-1.79 (active)	SNRPC	SID315451558
-1.31	SNRPC	SID315451558
0.56	PYGL	SID315450999
1.02	PYGL	SID315450999
1.25	PYGL	SID315450999
1.76	PYGL	SID315450999
0.13	CTBP2	SID315448161
0.38	CTBP2	SID315448161
0.99	CTBP2	SID315448161
0.84	CTBP2	SID315448161
0.03	BCL9L	SID315463636
0.71	BCL9L	SID315463636
0.59	BCL9L	SID315463636
0.63	BCL9L	SID315463636
-0.14	RNF25	SID315458889
0.83	RNF25	SID315458889
-0.61	RNF25	SID315458889
0.67	RNF25	SID315458889
-0.78	ALDH1A1	SID315447266
-0.75	ALDH1A1	SID315447266
0.75	ALDH1A1	SID315447266
0.86	ALDH1A1	SID315447266
